The values that follow come from publication PMC9363427, “The SWI/SNF chromatin remodeling factor DPF3 regulates metastasis of ccRCC by modulating TGF-β signaling” (Nature Communications, 2022).

Protein sequences, listed by entry. Tags and fused reporters are not part of them. Residues count along the entry.
UniProt Q9UDY4: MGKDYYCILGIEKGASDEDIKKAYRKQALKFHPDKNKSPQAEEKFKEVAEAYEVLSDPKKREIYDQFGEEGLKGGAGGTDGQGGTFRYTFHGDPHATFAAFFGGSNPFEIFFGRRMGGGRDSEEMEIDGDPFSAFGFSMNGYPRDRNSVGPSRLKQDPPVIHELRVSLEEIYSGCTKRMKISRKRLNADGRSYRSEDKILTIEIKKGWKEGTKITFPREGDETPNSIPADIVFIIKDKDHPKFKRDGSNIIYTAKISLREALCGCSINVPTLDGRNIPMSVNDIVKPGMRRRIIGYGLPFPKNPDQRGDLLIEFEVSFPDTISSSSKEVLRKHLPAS
UniProt Q9NVP2: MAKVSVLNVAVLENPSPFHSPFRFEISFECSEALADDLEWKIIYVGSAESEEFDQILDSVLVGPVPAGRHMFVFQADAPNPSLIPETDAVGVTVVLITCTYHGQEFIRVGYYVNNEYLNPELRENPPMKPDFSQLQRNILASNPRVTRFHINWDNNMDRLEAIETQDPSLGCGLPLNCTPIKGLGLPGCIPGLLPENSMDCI
UniProt P02545, residues 1-646: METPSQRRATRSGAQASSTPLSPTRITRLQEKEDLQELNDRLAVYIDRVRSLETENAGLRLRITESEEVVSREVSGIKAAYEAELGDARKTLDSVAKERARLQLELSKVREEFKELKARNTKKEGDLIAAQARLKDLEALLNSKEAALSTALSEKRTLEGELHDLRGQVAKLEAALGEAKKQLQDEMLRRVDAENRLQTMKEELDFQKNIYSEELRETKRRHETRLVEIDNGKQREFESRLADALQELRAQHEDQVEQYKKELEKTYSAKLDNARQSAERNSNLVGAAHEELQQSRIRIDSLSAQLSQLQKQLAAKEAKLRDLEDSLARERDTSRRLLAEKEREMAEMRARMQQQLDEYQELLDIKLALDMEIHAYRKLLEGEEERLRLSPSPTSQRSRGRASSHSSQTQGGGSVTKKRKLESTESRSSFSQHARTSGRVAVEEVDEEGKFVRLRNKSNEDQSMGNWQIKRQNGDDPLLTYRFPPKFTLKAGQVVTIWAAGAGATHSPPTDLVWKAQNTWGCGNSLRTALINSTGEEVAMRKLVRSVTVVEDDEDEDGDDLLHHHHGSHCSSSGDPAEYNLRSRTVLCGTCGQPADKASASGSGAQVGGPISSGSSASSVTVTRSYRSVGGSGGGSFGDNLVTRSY
UniProt P51531: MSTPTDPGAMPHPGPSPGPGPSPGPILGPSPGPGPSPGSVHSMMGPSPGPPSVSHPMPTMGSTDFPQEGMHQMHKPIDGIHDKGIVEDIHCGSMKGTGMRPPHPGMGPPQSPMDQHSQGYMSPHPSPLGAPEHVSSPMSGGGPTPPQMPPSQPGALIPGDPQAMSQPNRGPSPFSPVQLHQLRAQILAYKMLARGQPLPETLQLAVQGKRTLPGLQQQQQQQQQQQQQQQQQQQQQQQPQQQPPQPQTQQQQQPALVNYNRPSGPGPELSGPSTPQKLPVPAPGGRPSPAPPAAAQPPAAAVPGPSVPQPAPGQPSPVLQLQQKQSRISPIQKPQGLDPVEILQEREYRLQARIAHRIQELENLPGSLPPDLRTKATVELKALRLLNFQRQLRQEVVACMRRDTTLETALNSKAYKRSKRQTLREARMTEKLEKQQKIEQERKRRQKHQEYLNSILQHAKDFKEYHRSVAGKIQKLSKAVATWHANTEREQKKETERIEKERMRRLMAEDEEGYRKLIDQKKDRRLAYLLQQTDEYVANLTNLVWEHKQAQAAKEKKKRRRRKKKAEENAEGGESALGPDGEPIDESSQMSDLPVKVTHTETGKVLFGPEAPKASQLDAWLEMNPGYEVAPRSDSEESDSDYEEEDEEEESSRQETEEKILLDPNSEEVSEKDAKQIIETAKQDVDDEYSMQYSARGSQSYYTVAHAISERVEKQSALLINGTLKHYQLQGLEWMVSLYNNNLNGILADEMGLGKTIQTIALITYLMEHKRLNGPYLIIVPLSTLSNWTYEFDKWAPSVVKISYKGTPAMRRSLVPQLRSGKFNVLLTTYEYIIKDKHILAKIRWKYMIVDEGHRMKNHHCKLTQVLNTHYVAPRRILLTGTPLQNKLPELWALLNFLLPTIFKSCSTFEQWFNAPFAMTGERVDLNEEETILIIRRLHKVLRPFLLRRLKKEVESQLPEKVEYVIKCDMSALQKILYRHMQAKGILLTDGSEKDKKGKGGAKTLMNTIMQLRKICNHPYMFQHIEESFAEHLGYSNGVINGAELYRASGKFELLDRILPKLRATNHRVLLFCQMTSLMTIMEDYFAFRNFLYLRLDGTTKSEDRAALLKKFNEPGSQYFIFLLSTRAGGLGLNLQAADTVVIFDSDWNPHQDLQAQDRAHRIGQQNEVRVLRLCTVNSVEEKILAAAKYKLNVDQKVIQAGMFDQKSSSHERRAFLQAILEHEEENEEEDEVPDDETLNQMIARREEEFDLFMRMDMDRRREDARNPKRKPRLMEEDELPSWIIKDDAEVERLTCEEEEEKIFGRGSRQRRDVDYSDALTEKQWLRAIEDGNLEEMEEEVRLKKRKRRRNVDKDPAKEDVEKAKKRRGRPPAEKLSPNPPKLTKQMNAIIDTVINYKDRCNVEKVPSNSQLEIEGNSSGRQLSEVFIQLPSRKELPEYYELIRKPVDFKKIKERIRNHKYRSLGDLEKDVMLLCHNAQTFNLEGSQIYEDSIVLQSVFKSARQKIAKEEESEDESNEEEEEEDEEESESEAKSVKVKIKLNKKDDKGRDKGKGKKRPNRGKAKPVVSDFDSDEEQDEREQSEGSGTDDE
UniProt Q92922: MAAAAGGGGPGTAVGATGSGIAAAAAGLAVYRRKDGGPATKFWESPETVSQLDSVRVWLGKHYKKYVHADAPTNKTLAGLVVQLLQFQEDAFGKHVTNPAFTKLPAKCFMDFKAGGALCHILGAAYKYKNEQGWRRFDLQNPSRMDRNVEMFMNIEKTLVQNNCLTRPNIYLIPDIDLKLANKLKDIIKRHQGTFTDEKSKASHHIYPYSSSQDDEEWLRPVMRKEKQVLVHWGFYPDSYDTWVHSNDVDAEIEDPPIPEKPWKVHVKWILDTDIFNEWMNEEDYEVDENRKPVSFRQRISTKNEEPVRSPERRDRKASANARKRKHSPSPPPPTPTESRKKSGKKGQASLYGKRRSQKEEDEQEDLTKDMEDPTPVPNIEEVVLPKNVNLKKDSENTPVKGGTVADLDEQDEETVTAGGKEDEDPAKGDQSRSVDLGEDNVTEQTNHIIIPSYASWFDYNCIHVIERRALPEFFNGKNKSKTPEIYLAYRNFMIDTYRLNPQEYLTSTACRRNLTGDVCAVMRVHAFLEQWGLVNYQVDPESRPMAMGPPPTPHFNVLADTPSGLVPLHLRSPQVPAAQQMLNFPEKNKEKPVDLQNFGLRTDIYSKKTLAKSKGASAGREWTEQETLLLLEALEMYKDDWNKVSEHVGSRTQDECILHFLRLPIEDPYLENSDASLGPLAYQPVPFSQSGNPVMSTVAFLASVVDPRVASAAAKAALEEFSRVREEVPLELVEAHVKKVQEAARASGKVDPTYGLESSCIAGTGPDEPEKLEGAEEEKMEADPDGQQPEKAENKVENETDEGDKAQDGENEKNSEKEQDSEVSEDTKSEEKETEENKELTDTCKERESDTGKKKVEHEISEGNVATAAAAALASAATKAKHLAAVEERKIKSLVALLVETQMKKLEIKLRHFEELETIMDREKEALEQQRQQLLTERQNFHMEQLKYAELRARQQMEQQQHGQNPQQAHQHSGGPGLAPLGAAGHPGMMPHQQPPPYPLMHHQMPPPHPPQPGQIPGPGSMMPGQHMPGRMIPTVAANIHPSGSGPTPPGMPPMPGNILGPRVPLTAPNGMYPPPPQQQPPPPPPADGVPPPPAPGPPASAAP
UniProt Q8TAQ2: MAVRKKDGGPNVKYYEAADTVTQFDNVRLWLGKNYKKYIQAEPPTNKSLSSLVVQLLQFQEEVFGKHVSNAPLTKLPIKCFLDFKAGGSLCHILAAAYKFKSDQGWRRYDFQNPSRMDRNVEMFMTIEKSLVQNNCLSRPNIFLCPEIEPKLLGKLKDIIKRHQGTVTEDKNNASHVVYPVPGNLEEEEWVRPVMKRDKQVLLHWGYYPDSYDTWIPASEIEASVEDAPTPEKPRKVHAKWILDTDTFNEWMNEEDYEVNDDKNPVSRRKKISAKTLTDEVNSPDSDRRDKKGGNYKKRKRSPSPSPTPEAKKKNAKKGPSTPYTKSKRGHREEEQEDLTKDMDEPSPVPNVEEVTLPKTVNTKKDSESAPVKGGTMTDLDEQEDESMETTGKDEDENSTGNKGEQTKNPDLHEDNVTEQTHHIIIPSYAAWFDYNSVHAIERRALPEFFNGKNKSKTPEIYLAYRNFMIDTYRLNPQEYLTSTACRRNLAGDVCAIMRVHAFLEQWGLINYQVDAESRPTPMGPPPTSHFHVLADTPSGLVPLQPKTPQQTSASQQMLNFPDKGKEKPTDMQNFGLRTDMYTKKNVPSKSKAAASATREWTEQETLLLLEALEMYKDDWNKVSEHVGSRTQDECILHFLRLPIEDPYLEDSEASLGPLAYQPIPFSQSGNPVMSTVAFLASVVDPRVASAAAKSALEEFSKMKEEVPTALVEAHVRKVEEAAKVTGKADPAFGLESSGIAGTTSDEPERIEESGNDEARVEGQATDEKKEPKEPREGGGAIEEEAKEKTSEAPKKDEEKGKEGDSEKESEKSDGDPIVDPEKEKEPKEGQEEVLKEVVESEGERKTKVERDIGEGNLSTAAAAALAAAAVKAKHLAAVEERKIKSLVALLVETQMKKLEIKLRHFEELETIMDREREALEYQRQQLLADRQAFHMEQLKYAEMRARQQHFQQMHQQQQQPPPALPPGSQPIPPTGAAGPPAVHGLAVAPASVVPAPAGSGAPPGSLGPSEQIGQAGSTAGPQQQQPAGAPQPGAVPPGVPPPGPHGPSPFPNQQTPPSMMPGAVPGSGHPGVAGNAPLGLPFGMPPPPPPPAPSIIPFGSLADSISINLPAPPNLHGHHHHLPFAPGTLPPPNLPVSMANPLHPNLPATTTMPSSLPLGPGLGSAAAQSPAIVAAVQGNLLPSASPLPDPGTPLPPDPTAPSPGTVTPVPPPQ
UniProt Q96GM5: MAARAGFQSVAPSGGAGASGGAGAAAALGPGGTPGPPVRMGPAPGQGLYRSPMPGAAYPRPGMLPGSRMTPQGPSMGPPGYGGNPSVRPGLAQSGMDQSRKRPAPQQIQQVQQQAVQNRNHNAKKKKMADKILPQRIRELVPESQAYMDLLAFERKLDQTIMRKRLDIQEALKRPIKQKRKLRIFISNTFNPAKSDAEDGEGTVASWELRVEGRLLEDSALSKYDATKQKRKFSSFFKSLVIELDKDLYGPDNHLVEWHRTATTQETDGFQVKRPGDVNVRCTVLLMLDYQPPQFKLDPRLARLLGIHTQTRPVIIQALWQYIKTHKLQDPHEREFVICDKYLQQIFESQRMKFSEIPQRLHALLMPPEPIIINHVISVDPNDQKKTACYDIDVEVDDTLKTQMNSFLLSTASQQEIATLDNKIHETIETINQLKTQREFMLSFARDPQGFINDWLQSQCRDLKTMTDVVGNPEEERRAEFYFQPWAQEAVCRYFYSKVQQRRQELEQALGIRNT
UniProt Q92925: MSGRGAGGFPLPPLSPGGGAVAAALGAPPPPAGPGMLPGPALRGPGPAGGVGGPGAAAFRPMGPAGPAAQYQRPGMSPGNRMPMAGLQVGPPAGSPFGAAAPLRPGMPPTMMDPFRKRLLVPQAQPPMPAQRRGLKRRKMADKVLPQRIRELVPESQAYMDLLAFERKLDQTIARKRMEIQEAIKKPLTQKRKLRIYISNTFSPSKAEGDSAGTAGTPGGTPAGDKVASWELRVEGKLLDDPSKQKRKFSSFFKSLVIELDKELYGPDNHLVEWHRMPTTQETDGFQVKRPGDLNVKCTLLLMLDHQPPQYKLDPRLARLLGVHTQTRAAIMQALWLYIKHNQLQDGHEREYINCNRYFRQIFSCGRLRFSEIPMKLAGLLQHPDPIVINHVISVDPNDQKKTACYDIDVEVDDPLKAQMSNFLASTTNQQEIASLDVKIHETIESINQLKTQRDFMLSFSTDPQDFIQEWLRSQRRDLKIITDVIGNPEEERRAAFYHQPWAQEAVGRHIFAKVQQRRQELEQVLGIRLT
UniProt P68366: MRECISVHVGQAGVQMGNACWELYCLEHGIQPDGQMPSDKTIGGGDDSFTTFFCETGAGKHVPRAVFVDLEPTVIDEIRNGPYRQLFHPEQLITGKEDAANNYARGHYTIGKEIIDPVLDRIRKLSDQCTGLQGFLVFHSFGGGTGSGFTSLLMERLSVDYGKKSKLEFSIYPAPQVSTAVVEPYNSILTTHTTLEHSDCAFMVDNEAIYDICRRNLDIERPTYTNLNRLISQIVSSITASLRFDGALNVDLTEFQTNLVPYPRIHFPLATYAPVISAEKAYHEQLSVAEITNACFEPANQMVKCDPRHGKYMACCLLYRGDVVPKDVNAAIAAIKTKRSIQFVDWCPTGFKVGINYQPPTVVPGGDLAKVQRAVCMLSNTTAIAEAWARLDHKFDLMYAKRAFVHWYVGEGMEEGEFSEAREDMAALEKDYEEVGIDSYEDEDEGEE

Results are given in words; binding and its absence hold for the method and conditions named. In cells and extracts the contact can be indirect. A yes stands for co-enrichment or nearness to the bait. Other partners may have been found. Where a sequence is shown, tags or fusion partners need not be part of it.

The target of this experiment is T1, HA-tagged DPF3a (786-O cells) (human) (UniProt Q92784).
T1 sequence: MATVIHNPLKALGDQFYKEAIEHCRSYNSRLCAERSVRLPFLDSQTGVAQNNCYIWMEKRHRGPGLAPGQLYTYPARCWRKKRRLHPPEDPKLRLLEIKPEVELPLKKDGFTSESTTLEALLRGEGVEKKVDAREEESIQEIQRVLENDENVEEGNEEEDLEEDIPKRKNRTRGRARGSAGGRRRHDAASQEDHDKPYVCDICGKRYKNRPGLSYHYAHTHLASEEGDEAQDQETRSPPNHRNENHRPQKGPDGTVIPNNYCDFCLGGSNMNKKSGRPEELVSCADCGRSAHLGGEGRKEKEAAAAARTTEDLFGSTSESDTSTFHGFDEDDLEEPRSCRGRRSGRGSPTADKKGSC
The experiment can be described thus: affinity purification with mass spectrometry; lysate of 786-O cells with and without HA-tagged DPF3a; immunoprecipitation with anti-HA beads for two hours, three washes with TBST, on-beads trypsin digestion, label-free quantification.

For the molecule “Actin-like protein 6A (from UniProt O96019 1-429)”, the binding entry is “binds”.

Consider “Dihydrolipoamide Branched Chain Transacylase (from UniProt P11182 62-482)”, for which the binding entry is listed as “binds”.

Consider “Dimethyladenosine transferase 1, mitochondrial (from UniProt Q8WVM0 28-346)”, for which the binding result is listed as “binds”.

Consider “DnaJ homolog subfamily B member 4 (from UniProt Q9UDY4 1-337)”, for which the binding result was “binds”.

“Glycogen phosphorylase, brain form/muscle form (human (endogenous in 786-O))”: the binding entry was “binds”.

Take “Histone chaperone ASF1B (from UniProt Q9NVP2 1-202)”: the binding entry is on record as “binds”.

Turning to Lamin A/C (from UniProt P02545 1-646), the binding entry is on record as “binds”.

With “Putative lipocalin 1-like protein 1;Lipocalin 1 (human (endogenous in 786-O))”, the binding entry is on record as “binds”.

For the molecule “SWI/SNF complex subunit SMARCA2 (from UniProt P51531 1-1590)”, the binding entry is recorded as “binds”.

As for “SWI/SNF complex subunit SMARCA4 (from UniProt P51532 1-1647)”, the binding entry is “binds”.

With “SWI/SNF complex subunit SMARCB1 (from UniProt Q12824 1-385)”, the binding result was “binds”.

Take “SWI/SNF complex subunit SMARCC1 (from UniProt Q92922 1-1105)”: the binding result is given as “binds”.

Take “SWI/SNF complex subunit SMARCC2 (from UniProt Q8TAQ2 1-1214)”: the binding entry was “binds”.

Consider “SWI/SNF complex subunit SMARCD1 (from UniProt Q96GM5 1-515)”, for which the binding result is recorded as “binds”.

As to “SWI/SNF complex subunit SMARCD2 (from UniProt Q92925 1-531)”, the binding result was “binds”.

Regarding “SWI/SNF complex subunit SMARCD3 (from UniProt Q6STE5 1-483)”, the binding entry is given as “binds”.

With “SWI/SNF complex subunit SMARCE1 (from UniProt Q969G3 1-411)”, the binding entry was “binds”.

As to “Tubulin alpha-4A chain (from UniProt P68366 1-448)”, the binding result is recorded as “binds”.

In the case of “U2 snRNP-associated SURP motif-containing protein (from UniProt O15042 1-1029)”, the binding result was “binds”.

B1: SMAD nuclear-interacting protein 1 (endogenous, 786-O) (protein, UniProt Q8TAD8 1-396)
chain: MKAVKSERERGSRRRHRDGDVVLPAGVVVKQERLSPEVAPPAHRRPDHSGGSPSPPTSEPARSGHRGNRARGVSRSPPKKKNKASGRRSKSPRSKRNRSPHHSTVKVKQEREDHPRRGREDRQHREPSEQEHRRARNSDRDRHRGHSHQRRTSNERPGSGQGQGRDRDTQNLQAQEEEREFYNARRREHRQRNDVGGGGSESQELVPRPGGNNKEKEVPAKEKPSFELSGALLEDTNTFRGVVIKYSEPPEARIPKKRWRLYPFKNDEVLPVMYIHRQSAYLLGRHRRIADIPIDHPSCSKQHAVFQYRLVEYTRADGTVGRRVKPYIIDLGSGNGTFLNNKRIEPQRYYELKEKDVLKFGFSSREYVLLHESSDTSEIDRKDDEDEEEEEEVSDS
B1: the binding entry is given as “binds”.

B2: 14-3-3 protein theta (protein, UniProt P27348 1-245)
chain: MEKTELIQKAKLAEQAERYDDMATCMKAVTEQGAELSNEERNLLSVAYKNVVGGRRSAWRVISSIEQKTDTSDKKLQLIKDYREKVESELRSICTTVLELLDKYLIANATNPESKVFYLKMKGDYFRYLAEVACGDDRKQTIDNSQGAYQEAFDISKKEMQPTHPIRLGLALNFSVFYYEILNNPELACTLAKTAFDEAIAELDTLNEDSYKDSTLIMQLLRDNLTLWTSDSAGEECDAAEGAEN
Consider B2, for which the binding entry is given as “binds”.

B3: Lysozyme; Lysozyme C (protein, UniProt P61626 19-148)
chain: KVFERCELARTLKRLGMDGYRGISLANWMCLAKWESGYNTRATNYNAGDRSTDYGIFQINSRYWCNDGKTPGAVNACHLSCSALLQDNIADAVACAKRVVRDPQGIRAWVAWRNRCQNRDVRQYVQGCGV
For B3, the binding entry is “binds”.

B4: ATP-dependent 6-phosphofructokinase, liver type (protein, UniProt P17858 1-780)
chain: MAAVDLEKLRASGAGKAIGVLTSGGDAQGMNAAVRAVTRMGIYVGAKVFLIYEGYEGLVEGGENIKQANWLSVSNIIQLGGTIIGSARCKAFTTREGRRAAAYNLVQHGITNLCVIGGDGSLTGANIFRSEWGSLLEELVAEGKISETTARTYSHLNIAGLVGSIDNDFCGTDMTIGTDSALHRIMEVIDAITTTAQSHQRTFVLEVMGRHCGYLALVSALASGADWLFIPEAPPEDGWENFMCERLGETRSRGSRLNIIIIAEGAIDRNGKPISSSYVKDLVVQRLGFDTRVTVLGHVQRGGTPSAFDRILSSKMGMEAVMALLEATPDTPACVVTLSGNQSVRLPLMECVQMTKEVQKAMDDKRFDEATQLRGGSFENNWNIYKLLAHQKPPKEKSNFSLAILNVGAPAAGMNAAVRSAVRTGISHGHTVYVVHDGFEGLAKGQVQEVGWHDVAGWLGRGGSMLGTKRTLPKGQLESIVENIRIYGIHALLVVGGFEAYEGVLQLVEARGRYEELCIVMCVIPATISNNVPGTDFSLGSDTAVNAAMESCDRIKQSASGTKRRVFIVETMGGYCGYLATVTGIAVGADAAYVFEDPFNIHDLKVNVEHMTEKMKTDIQRGLVLRNEKCHDYYTTEFLYNLYSSEGKGVFDCRTNVLGHLQQGGAPTPFDRNYGTKLGVKAMLWLSEKLREVYRKGRVFANAPDSACVIGLKKKAVAFSPVTELKKDTDFEHRMPREQWWLSLRLMLKMLAQYRISMAAYVSGELEHVTRRTLSMDKGF
As for B4, the binding entry is recorded as “binds”.

B5: CTP synthase 1 (protein, UniProt P17812 1-591)
chain: MKYILVTGGVISGIGKGIIASSVGTILKSCGLHVTSIKIDPYINIDAGTFSPYEHGEVFVLDDGGEVDLDLGNYERFLDIRLTKDNNLTTGKIYQYVINKERKGDYLGKTVQVVPHITDAIQEWVMRQALIPVDEDGLEPQVCVIELGGTVGDIESMPFIEAFRQFQFKVKRENFCNIHVSLVPQPSSTGEQKTKPTQNSVRELRGLGLSPDLVVCRCSNPLDTSVKEKISMFCHVEPEQVICVHDVSSIYRVPLLLEEQGVVDYFLRRLDLPIERQPRKMLMKWKEMADRYDRLLETCSIALVGKYTKFSDSYASVIKALEHSALAINHKLEIKYIDSADLEPITSQEEPVRYHEAWQKLCSAHGVLVPGGFGVRGTEGKIQAIAWARNQKKPFLGVCLGMQLAVVEFSRNVLGWQDANSTEFDPTTSHPVVVDMPEHNPGQMGGTMRLGKRRTLFQTKNSVMRKLYGDADYLEERHRHRFEVNPVWKKCLEEQGLKFVGQDVEGERMEIVELEDHPFFVGVQYHPEFLSRPIKPSPPYFGLLLASVGRLSHYLQKGCRLSPRDTYSDRSGSSSPDSEITELKFPSINHD
Turning to B5, the binding result is “binds”.
